Experimental data published in the supplement of paper PMC12823440, “Inhibitors supercharge kinase turnover through native proteolytic circuits” (Nature, 2025).
Where a name gives a salt, the structure may show the parent alone. Some of the results follow. Hit calls seldom repeat between salt and free forms of one compound.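 Kinases were expressed as nanoluciferase fusions in K562 cells and luminescence was read every 4 h between 2 and 18 h as percent of control, DMSO set to 100% and a positive control to 0%. A time point counts as decreased when the signal drops significantly (2 sigma). The hit call is the authors' own, does not follow from the count of time points alone, and its rule is not shown.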

By UniProt entry, the sequences of proteins in these tests, tags left out. Where a name states a change or a piece, a line headed by the entry shows the natural chain unless it says otherwise.
UniProt P10398: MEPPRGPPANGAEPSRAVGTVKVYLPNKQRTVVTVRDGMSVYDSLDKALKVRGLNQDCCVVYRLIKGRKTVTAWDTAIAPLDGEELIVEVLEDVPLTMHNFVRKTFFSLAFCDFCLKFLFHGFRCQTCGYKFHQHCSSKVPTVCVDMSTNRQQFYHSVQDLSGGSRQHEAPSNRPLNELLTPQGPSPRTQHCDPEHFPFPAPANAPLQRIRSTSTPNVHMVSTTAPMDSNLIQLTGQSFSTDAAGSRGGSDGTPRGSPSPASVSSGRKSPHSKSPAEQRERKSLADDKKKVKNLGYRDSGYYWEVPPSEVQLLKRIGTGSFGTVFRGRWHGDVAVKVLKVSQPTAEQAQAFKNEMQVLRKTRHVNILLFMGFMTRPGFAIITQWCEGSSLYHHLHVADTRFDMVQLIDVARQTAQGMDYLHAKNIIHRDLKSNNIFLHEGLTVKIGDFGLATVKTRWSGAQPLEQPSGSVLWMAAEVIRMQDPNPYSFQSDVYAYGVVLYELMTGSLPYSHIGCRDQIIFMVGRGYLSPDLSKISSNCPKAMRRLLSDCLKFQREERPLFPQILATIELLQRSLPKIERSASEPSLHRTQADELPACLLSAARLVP
UniProt O14965: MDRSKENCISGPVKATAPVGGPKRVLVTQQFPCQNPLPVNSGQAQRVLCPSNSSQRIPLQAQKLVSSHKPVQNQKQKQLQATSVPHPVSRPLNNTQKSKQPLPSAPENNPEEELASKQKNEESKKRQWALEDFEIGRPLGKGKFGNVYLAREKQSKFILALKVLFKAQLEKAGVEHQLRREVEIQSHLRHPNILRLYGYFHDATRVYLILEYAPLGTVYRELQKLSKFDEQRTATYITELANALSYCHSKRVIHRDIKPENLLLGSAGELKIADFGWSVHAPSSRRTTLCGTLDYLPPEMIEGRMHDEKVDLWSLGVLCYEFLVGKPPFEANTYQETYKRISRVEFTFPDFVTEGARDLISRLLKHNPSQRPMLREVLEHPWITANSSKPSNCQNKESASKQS
UniProt Q96GD4, whole entry: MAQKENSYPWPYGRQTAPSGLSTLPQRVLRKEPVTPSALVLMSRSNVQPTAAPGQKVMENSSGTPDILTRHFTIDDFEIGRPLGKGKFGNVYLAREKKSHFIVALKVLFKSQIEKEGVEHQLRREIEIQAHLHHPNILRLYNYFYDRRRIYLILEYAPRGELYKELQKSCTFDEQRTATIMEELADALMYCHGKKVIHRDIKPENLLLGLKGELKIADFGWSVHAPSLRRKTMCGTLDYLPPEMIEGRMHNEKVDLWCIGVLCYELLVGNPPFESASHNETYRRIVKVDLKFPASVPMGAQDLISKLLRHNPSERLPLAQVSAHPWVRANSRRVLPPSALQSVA
UniProt Q9UQB9: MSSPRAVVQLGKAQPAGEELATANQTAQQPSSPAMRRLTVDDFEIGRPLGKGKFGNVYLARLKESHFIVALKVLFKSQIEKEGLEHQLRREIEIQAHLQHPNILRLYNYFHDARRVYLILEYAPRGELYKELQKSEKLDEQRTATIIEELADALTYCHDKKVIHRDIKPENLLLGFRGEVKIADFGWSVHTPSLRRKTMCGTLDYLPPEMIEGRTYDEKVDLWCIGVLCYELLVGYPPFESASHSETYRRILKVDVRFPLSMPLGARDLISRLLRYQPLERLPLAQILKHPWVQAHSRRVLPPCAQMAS
UniProt P51451: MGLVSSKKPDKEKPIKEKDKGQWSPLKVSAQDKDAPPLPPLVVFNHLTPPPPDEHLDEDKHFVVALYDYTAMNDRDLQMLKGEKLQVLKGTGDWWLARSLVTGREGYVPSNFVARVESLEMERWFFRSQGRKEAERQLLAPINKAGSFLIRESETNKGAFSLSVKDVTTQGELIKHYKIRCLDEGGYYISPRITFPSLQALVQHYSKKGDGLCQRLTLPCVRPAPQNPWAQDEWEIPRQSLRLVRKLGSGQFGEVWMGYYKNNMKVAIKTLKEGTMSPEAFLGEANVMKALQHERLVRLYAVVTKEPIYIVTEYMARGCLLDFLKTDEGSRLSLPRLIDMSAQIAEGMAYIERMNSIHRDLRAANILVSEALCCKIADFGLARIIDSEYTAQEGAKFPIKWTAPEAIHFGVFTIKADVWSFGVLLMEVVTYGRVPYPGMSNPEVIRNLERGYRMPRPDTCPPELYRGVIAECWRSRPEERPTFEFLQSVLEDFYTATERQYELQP
UniProt P51813: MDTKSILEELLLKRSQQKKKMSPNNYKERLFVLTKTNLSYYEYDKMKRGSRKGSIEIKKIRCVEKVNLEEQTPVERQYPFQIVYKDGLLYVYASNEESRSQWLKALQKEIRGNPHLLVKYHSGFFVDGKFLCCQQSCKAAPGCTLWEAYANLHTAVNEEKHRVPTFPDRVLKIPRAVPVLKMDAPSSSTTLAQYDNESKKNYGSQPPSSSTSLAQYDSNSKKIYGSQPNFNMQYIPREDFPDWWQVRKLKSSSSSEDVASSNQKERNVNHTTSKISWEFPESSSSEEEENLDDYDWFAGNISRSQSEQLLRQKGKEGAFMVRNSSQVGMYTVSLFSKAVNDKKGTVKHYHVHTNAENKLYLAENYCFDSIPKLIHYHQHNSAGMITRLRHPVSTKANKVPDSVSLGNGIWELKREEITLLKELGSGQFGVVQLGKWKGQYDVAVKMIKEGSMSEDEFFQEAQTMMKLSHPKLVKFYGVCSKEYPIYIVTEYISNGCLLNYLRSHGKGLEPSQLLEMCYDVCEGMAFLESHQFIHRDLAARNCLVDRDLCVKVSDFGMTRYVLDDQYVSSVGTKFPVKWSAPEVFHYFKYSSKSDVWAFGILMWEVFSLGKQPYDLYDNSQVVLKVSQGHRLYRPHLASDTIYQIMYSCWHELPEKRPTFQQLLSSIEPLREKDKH
UniProt P15056, whole entry, looked up: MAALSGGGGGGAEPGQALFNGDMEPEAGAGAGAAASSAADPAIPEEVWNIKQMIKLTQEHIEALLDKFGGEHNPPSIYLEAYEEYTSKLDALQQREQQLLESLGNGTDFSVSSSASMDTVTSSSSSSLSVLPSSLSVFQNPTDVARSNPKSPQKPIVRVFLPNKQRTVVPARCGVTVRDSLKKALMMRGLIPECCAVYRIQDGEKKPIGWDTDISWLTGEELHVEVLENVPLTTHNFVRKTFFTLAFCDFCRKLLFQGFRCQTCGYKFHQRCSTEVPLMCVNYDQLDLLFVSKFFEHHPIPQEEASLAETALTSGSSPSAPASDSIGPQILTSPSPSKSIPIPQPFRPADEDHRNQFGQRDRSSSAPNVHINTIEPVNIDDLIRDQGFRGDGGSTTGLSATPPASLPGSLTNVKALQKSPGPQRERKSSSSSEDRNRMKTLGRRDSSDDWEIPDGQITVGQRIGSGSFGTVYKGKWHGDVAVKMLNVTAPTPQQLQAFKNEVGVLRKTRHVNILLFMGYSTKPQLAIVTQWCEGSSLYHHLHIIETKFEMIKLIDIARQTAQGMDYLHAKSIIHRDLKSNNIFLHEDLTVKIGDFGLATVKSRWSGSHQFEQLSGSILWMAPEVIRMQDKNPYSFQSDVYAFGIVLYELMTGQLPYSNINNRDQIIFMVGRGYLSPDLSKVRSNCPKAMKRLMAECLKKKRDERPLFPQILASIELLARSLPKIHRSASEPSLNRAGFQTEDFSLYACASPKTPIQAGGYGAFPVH
UniProt Q06187: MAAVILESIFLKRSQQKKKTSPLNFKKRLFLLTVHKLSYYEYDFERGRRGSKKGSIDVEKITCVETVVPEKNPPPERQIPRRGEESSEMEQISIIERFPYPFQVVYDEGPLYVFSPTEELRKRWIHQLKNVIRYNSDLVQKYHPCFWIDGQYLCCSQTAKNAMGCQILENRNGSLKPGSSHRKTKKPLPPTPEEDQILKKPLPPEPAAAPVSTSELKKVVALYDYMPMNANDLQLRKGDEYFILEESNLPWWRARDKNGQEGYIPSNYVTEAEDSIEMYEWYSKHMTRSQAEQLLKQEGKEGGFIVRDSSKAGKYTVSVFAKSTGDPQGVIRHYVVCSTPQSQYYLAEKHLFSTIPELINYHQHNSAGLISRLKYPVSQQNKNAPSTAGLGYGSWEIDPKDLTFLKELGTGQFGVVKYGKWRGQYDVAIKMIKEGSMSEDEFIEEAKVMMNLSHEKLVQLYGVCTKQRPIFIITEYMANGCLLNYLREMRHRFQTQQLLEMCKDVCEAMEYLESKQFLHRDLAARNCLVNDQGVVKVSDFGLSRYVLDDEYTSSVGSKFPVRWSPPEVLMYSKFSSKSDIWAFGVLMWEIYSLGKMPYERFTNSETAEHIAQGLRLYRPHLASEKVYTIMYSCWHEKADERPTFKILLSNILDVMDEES
UniProt Q9UQM7, whole entry: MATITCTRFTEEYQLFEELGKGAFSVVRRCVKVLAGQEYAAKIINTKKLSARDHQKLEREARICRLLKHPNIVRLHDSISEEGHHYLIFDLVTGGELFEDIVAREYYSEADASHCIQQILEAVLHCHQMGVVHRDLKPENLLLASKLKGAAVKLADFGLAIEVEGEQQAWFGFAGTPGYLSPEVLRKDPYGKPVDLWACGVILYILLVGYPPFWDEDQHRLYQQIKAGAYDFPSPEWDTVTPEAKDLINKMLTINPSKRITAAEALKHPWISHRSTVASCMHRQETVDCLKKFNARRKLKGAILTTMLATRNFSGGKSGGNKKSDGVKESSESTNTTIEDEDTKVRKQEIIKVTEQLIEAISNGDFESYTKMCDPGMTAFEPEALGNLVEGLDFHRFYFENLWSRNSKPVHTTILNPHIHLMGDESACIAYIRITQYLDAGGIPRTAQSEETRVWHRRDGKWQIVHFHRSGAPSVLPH
UniProt Q13555: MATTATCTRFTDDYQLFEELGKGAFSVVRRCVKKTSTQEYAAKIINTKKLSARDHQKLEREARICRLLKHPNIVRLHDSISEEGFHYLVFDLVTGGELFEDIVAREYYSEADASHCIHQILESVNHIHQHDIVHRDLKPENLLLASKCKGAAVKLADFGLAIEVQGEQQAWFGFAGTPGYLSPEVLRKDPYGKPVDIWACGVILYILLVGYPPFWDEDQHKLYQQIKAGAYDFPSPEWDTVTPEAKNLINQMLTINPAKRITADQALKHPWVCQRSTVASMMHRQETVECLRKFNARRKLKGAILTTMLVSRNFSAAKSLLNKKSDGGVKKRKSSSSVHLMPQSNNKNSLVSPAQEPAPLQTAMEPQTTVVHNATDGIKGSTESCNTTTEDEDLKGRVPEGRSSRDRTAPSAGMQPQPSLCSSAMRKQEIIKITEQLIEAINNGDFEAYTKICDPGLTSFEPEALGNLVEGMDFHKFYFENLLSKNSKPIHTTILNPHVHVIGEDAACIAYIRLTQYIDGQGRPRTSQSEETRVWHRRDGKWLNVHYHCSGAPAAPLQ
UniProt Q15131: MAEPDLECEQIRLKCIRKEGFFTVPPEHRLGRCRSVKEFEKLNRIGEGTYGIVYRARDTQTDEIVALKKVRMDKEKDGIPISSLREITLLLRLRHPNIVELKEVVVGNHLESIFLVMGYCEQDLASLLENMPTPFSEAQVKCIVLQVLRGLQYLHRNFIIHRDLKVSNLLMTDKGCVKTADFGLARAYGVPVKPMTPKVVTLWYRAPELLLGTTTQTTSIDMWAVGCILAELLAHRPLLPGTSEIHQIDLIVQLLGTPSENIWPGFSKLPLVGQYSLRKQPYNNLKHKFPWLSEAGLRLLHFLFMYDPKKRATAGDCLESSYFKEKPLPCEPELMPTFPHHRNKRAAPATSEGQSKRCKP
UniProt Q00535, whole entry, looked up: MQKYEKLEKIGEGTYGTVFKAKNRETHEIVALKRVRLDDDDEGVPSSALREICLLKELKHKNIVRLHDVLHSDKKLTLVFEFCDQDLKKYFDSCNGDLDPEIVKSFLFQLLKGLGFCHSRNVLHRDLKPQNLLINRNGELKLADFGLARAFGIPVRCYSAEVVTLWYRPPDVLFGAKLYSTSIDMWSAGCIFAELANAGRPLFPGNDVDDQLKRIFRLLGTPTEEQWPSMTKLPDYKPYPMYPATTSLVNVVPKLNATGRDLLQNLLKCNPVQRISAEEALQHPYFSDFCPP
UniProt O96017, whole entry: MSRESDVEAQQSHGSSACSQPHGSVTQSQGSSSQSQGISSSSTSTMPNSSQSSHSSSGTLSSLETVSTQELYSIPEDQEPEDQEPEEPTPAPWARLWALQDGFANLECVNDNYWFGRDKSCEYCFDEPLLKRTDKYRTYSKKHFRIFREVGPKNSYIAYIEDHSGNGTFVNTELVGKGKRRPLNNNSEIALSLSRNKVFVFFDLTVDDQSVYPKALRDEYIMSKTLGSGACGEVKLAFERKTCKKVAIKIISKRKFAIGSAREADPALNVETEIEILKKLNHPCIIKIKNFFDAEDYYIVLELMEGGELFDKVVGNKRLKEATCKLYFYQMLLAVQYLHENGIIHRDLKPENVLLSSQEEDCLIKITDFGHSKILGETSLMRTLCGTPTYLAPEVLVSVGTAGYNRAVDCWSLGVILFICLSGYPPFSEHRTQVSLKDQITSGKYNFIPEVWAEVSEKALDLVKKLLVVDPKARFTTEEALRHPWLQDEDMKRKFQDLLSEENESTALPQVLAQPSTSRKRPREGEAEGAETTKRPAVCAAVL

What was measured:
Assay in all cases: number of time points (of 5) at which kinase-Nluc abundance scored as decreased, DMSO-normalised (count); higher = more persistent destabilization
Conditions in all cases: K562; 2-18 h
ALK = ALK (UniProt Q9UM73)
ARAF = ARAF (UniProt P10398)
AURKA = AURKA (UniProt O14965)
AURKB = AURKB (UniProt Q96GD4)
AURKC = AURKC (UniProt Q9UQB9)
BLK = BLK (UniProt P51451)
BMX = BMX (UniProt P51813)
BRAF = BRAF (UniProt P15056)
BRAF_V600E = system: BRAF_V600E
BTK = BTK (UniProt Q06187)
CAMK2A = CAMK2A (UniProt Q9UQM7)
CAMK2G = CAMK2G (UniProt Q13555)
CDK10 = CDK10 (UniProt Q15131)
CDK2 = CDK2 (UniProt P24941)
CDK3 = CDK3 (UniProt Q00526)
CDK5 = CDK5 (UniProt Q00535)
CDK6 = CDK6 (UniProt Q00534)
CHEK2 = CHEK2 (UniProt O96017)
CSF1R = CSF1R (UniProt P07333)
CSK = CSK (UniProt P41240)

Measured: number of time points

Clc1ccc(Nc2cccc(-c3cn[nH]c3)c2)cc1 (10 µM)
0: all assays above

Cc1cc(F)c(Nc2ncnc3cc(OCc4ccccc4)ccc23)cc1O (10 µM)
0: all assays above

CNS(=O)(=O)C[C@H]1CC[C@H](N(C)c2[nH]cnc3nccc2-3)CC1 [Oclacitinib (maleate)] (10 µM)
0: all assays above

Cc1c(C(=O)Nc2ccc(Oc3ccnc4cc(OCC(C)(C)O)ccc34)c(F)c2)c(=O)n(-c2ccccc2)n1C [Ningetinib Tosylate] (10 µM)
1: ALK | AURKB | BRAF_V600E | CHEK2 | CSF1R
2: CAMK2G | CDK6
3: AURKA | BMX | BRAF
0: all other assays above

Cc1nc(Nc2ncc(C(=O)Nc3c(C)cccc3Cl)s2)cc(N2CCN(C(=O)CCCCCCC(=O)N[C@H](C(=O)N3C[C@H](O)C[C@H]3C(=O)NCc3ccc(-c4scnc4C)cc3)C(C)(C)C)CC2)n1 (2.5 µM)
0: CDK2 | CDK5 | CDK6
4: BLK | BTK
1: ARAF | AURKC | CAMK2A | CDK3
5: BMX
3: BRAF_V600E
2: all other assays above

CN1CCN(c2ccc(NC(=O)c3ccc(C#N)o3)c(N3CCCCC3)c2)CC1 (10 µM)
0: all assays above

CN(C)CCCn1cc(C2=C(c3c[nH]c4ccccc34)C(=O)NC2=O)c2ccccc21 [Bisindolylmaleimide I] (2.5 µM)
0: all assays above

Cc1cccc(-c2[nH]c(C(C)(C)C)nc2-c2ccc3c(c2)OCO3)n1 (2.5 µM)
0: all assays above
